PMC9238189
These are yes or no findings as the source states them, for the method shown. Binding seen in cells or lysates may run through a third protein. Some entries that bind do so weakly or less than the wild type. For some assays here: Tags and fused reporters may be left off the sequences shown.

Chains of the proteins cited; added tags and fusions are not shown.
UniProt Q7KZF4: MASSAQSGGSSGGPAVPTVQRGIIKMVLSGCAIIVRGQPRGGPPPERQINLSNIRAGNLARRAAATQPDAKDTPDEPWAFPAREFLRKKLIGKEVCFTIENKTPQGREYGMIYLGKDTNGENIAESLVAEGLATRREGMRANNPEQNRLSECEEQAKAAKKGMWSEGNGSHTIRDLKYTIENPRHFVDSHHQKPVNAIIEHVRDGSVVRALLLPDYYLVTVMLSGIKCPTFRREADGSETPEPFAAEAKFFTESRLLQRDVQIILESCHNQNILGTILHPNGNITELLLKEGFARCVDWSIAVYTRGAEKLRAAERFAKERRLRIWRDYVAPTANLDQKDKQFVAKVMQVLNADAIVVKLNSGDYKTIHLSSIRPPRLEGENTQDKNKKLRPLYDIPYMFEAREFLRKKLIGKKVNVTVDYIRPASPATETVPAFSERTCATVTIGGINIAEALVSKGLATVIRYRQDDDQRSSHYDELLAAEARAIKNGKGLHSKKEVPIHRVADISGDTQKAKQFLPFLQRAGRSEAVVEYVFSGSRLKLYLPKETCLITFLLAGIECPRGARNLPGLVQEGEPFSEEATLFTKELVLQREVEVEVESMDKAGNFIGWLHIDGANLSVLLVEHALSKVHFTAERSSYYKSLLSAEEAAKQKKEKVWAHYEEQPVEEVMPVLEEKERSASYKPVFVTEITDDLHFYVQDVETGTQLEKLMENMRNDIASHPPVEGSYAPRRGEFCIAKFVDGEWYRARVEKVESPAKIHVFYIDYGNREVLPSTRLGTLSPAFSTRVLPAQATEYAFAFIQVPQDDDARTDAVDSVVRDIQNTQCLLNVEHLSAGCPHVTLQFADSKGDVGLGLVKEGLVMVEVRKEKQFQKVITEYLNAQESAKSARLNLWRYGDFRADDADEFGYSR

Key:
ZsGreen1-tagged tTmod3-C = target: T1, ZsGreen1-tagged tTmod3-C (UniProt Q9NYL9); experiment: co-IP; anti-ZsGreen1 immunoprecipitate of ZsGreen1-tTmod3-C from U87-MG cells, immunoblot for SND1
T1 sequence: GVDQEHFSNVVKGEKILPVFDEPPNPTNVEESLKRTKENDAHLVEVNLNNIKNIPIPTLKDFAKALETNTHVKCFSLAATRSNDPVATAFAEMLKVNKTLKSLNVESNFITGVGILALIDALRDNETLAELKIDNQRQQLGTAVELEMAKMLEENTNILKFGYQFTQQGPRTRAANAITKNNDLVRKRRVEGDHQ

Flag-tagged SND1 (human) = Flag-tagged SND1 (human) (UniProt Q7KZF4); experiment: co-IP; Flag-tagged SND1 and ZsGreen1-tTmod3-C (or ZsGreen1) transiently expressed in HEK293 cells, immunoblotting with anti-ZsGreen1 antibody
[1] = target: T2, Asparagine endopeptidase (AEP) (mouse (endogenous in MEFs)) (UniProt O89017); experiment: co-IP; AEP immunoprecipitated from MEFs, immunoblot for Tmod3
T2 sequence: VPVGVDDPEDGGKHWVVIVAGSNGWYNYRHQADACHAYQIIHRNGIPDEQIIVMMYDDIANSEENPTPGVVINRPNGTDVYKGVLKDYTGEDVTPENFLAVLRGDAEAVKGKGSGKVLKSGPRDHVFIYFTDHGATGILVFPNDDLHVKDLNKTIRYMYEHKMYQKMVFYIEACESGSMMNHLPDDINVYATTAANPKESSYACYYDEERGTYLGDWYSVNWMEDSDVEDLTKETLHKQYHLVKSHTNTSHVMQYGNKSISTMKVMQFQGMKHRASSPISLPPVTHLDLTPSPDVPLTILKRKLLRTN

[2] = target: T3, Asparagine endopeptidase (AEP) (human (endogenous in U87-MG and A172)) (UniProt Q99538); experiment: co-IP; endogenous co-IP and western blotting in U87-MG and A172 cells; whole-cell extracts, Protein A/G beads, low-salt lysis buffer washes
T3 sequence: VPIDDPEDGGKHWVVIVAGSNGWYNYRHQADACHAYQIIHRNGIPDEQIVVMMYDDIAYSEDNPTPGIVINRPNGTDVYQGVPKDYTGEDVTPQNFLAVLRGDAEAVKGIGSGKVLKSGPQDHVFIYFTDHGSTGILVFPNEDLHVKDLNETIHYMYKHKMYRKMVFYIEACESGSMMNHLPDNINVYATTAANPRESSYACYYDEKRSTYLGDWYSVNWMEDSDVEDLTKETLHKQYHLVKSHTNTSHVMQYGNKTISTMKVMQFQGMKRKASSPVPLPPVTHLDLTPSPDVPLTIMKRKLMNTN

[3] = target: T4, Asparagine endopeptidase (AEP) (UniProt Q99538); experiment: co-IP; Flag-tagged truncations of Tmod3 and AEP in HEK293 cells, western blotting
T4 sequence: T3 sequence

Molecule: Staphylococcal Nuclease And Tudor Domain Containing 1 (SND1) (from UniProt Q7KZF4 1-910)
- binding (ZsGreen1-tagged tTmod3-C): binds

B1: ZsGreen1-tTmod3-C (domain or fragment, UniProt Q9NYL9 158-352)
chain: T1 sequence
- binding (Flag-tagged SND1 (human)): binds

B2: Tropomodulin-3 (Tmod3) (protein, UniProt Q9JHJ0 1-352)
chain: MALPFRKDLGDYKDLDEDELLGKLSESELKQLETVLDDLDPENALLPAGFRQKNQTSKSATGPFDRERLLSYLEKQALEHKDRDDYVPYTGEKKGKIFIPKQKPAQTLTEETISLDPELEEALTSASDTELCDLAAILGMHNLIADTPFCDVLGSSNGVNQERFPNVVKGEKILPVFDEPPNPTNVEESLKRIRENDARLVEVNLNNIKNIPIPTLKDFAKTLEANTHVKHFSLAATRSNDPVAVAFADMLKVNKTLKSLNMESNFITGAGVLALIDALRDNETLMELKIDNQRQQLGTSVELEMAKMLEENTNILKFGYQFTQQGPRTRAANAITKNNDLVRKRRIEGDHQ
- binding [1]: binds

B3: Tropomodulin-3 (Tmod3) (protein, UniProt Q9NYL9 1-352)
chain: MALPFRKDLEKYKDLDEDELLGNLSETELKQLETVLDDLDPENALLPAGFRQKNQTSKSTTGPFDREHLLSYLEKEALEHKDREDYVPYTGEKKGKIFIPKQKPVQTFTEEKVSLDPELEEALTSASDTELCDLAAILGMHNLITNTKFCNIMGSSNGVDQEHFSNVVKGEKILPVFDEPPNPTNVEESLKRTKENDAHLVEVNLNNIKNIPIPTLKDFAKALETNTHVKCFSLAATRSNDPVATAFAEMLKVNKTLKSLNVESNFITGVGILALIDALRDNETLAELKIDNQRQQLGTAVELEMAKMLEENTNILKFGYQFTQQGPRTRAANAITKNNDLVRKRRVEGDHQ
- binding [2]: binds

B4: Flag-tagged N-terminal truncated Tmod3 (amino acids 158-352), tTmod3-C (domain or fragment, UniProt Q9NYL9 158-352)
chain: T1 sequence
- binding [3]: binds
